Measurements reported in publication PMC12115799.
Results are given in words; binding and its absence hold for the method and conditions named. Binding seen in cells or lysates may run through a third protein. Some binding calls cover weakened binding; strength is not graded here.

Protein sequences, listed by entry. Tags and fused reporters are not part of them.
UniProt Q8WZA2: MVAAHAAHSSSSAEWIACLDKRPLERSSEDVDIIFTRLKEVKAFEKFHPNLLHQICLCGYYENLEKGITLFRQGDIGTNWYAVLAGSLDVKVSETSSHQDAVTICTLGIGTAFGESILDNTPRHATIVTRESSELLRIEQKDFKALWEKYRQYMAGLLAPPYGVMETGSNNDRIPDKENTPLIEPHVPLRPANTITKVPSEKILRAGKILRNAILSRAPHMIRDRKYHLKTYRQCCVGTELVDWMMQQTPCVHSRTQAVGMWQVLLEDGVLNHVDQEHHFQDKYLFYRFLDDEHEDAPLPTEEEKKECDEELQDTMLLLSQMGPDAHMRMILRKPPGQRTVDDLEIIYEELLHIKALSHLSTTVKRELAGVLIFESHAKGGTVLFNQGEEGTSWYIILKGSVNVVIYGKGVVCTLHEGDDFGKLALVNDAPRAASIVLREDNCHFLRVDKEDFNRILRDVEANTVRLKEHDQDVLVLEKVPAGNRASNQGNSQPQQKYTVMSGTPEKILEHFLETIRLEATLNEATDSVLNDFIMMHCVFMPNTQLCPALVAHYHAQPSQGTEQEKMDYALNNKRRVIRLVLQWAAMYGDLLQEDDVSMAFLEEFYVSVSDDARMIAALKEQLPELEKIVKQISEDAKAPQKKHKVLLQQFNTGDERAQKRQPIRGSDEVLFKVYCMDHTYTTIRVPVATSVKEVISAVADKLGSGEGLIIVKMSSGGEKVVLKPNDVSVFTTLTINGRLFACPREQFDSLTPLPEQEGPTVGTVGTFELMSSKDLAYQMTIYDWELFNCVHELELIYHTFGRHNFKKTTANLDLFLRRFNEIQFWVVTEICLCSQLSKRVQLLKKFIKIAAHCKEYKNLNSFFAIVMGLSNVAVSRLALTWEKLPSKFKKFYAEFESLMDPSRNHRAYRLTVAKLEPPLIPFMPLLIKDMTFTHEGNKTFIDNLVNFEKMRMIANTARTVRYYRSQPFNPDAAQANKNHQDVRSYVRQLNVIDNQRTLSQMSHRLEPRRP

Target: endogenous EPAC2 (human (endogenous in A549)) (UniProt Q8WZA2)
Experiment: co-IP

binding: binds
B1: junction plakoglobin (JUP) (protein, UniProt P14923 1-745)
chain: MEVMNLMEQPIKVTEWQQTYTYDSGIHSGANTCVPSVSSKGIMEEDEACGRQYTLKKTTTYTQGVPPSQGDLEYQMSTTARAKRVREAMCPGVSGEDSSLLLATQVEGQATNLQRLAEPSQLLKSAIVHLINYQDDAELATRALPELTKLLNDEDPVVVTKAAMIVNQLSKKEASRRALMGSPQLVAAVVRTMQNTSDLDTARCTTSILHNLSHHREGLLAIFKSGGIPALVRMLSSPVESVLFYAITTLHNLLLYQEGAKMAVRLADGLQKMVPLLNKNNPKFLAITTDCLQLLAYGNQESKLIILANGGPQALVQIMRNYSYEKLLWTTSRVLKVLSVCPSNKPAIVEAGGMQALGKHLTSNSPRLVQNCLWTLRNLSDVATKQEGLESVLKILVNQLSVDDVNVLTCATGTLSNLTCNNSKNKTLVTQNSGVEALIHAILRAGDKDDITEPAVCALRHLTSRHPEAEMAQNSVRLNYGIPAIVKLLNQPNQWPLVKATIGLIRNLALCPANHAPLQEAAVIPRLVQLLVKAHQDAQRHVAAGTQQPYTDGVRMEEIVEGCTGALHILARDPMNRMEIFRLNTIPLFVQLLYSSVENIQRVAAGVLCELAQDKEAADAIDAEGASAPLMELLHSRNEGTATYAAAVLFRISEDKNPDYRKRVSVELTNSLFKHDPAAWEAAQSMIPINEPYGDDMDATYRPMYSSDVPLDPLEMHMDMDGDYPIDTYSDGLRPPYPTADHMLA
